Laboratory results: patent publication US20250275988A1, “FORMULATION FOR TREATING URINARY SYSTEM DISORDERS” (WATERSHED MEDICAL, INC., priority 2022, published 2025)
At least one compound was matched to its structure with a doubt left.

Assay: density and max drug loading of antimicrobial agents considered for carrier particles
Format: physicochemical
Conditions: Table 7

C[C@@H](O)[C@H]1C(=O)N2C(C(=O)O)=C(SCCN=CN)C[C@H]12 [Imipenem]
Density: 1.6 g/mL
